Experimental data from the supplement of paper PMC11732987, “Enantioselective OTUD7B fragment discovery through chemoproteomics screening and high-throughput optimisation” (Communications Chemistry, 2025).
The other results are listed elsewhere or left out. The data scatter; read single values as rough.

Amino acid sequences for entries named in this document (tags omitted). A change or cut given only in a name is not applied to a line headed by its entry.
UniProt Q8ND82: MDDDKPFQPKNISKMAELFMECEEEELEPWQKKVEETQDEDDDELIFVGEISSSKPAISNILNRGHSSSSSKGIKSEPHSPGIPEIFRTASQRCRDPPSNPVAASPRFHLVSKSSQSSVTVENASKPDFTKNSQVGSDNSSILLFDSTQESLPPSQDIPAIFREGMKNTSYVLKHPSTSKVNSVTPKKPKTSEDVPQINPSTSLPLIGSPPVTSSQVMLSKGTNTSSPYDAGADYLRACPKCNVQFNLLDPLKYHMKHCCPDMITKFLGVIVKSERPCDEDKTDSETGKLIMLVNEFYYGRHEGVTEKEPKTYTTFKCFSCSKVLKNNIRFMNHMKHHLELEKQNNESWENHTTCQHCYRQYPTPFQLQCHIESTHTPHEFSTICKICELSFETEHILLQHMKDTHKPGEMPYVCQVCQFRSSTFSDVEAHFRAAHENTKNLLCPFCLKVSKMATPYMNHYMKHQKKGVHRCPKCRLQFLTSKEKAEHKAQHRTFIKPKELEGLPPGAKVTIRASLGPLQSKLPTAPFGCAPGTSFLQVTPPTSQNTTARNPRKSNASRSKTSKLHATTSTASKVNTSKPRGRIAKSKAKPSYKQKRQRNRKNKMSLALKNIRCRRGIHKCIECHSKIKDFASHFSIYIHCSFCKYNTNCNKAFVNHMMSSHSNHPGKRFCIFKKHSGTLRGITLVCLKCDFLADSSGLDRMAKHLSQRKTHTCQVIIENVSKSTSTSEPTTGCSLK
UniProt Q9UJN7: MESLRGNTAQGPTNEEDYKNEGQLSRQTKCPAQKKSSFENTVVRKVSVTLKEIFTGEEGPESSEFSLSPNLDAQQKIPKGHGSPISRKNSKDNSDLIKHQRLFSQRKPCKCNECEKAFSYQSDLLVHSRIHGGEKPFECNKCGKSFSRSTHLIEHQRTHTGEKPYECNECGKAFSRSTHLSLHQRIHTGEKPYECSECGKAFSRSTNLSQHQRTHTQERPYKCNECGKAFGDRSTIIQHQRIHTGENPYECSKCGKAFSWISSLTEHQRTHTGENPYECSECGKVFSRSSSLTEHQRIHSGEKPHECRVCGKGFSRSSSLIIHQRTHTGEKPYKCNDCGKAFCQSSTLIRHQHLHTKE
UniProt Q8IYH5: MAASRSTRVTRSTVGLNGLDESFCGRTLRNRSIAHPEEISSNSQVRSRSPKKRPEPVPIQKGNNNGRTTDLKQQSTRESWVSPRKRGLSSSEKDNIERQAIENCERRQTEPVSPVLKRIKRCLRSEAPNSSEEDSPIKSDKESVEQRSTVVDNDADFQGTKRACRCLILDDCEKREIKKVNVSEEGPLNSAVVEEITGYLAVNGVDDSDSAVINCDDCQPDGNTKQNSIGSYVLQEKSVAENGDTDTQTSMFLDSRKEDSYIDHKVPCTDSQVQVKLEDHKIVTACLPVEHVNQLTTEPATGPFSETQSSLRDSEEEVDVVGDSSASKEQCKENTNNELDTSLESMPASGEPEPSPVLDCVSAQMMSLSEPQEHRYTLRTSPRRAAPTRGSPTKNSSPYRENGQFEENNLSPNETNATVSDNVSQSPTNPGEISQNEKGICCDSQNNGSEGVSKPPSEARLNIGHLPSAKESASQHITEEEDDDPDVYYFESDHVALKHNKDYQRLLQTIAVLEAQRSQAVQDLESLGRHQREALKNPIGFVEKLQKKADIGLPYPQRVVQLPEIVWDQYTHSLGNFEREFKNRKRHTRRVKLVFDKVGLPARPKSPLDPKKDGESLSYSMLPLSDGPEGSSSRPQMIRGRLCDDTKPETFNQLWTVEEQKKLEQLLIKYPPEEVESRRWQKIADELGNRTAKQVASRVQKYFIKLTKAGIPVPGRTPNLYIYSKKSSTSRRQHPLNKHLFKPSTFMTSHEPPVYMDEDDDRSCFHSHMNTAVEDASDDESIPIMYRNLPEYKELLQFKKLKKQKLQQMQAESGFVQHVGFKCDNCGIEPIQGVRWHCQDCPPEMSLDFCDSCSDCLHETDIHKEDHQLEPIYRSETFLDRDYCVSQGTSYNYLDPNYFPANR
UniProt Q8N1G0: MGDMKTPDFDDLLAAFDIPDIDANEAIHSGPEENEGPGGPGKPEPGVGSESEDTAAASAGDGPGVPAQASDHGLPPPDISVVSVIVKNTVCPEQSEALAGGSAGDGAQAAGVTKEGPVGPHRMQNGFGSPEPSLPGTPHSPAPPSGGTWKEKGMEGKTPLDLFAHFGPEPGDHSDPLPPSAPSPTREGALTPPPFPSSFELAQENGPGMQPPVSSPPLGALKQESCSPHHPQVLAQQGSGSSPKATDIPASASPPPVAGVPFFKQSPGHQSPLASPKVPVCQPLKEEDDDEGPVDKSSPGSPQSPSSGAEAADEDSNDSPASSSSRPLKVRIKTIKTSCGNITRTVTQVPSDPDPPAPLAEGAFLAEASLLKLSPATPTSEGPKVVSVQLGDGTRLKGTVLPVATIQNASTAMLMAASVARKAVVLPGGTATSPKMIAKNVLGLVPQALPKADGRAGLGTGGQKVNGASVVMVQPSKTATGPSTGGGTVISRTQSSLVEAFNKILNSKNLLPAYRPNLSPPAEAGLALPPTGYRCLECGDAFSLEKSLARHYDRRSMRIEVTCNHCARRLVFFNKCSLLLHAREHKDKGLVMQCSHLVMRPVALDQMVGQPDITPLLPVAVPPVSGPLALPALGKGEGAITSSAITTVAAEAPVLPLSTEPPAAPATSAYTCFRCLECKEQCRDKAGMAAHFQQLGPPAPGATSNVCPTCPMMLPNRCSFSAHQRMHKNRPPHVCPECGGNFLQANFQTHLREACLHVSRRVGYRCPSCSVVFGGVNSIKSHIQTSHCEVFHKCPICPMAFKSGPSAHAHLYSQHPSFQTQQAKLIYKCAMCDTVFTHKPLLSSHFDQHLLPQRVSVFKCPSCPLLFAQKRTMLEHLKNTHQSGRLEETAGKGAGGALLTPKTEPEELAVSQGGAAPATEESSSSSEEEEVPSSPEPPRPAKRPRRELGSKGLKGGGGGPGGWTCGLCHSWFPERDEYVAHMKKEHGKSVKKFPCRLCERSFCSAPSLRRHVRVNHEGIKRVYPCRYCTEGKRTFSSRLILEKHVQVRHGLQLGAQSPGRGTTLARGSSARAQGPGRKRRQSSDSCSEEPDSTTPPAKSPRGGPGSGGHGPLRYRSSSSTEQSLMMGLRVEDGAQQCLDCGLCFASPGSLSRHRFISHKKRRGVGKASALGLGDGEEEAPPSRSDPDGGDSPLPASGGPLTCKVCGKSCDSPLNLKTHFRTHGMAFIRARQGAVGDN

How the values were obtained:
[1] = compound: ClCC(=O)N[C@@H]1CCCc2ccccc12; assay: log2 mean competition ratio of IA-DTB cysteine labelling (DMSO/compound) (log2 ratio); higher = stronger cysteine engagement by compound; details: treatment time: 4 h, cell line lysate: HEK293T
Experimental: (§1)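 IA-DTB competitive cysteine chemoproteomics in HEK293T RIPA lysate. Lysates were treated with compound 29 or 30 at 50 or 200 µM for 4 h, then IA-DTB (500 µM, 1 h), trypsin-digested, NeutrAvidin-enriched and analysed by diaPASEF. Competition ratio = intensity DMSO / intensity compound (n=4 treated, n=64 DMSO); binding: mean log2 CR ≥ 1 and p ≤ 0.05 plus QC filters. Target is the cysteine site.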

[2] = compound: ClCC(=O)N[C@H]1CCCc2ccccc12; assay: as above; details: treatment time: 4 h, cell line lysate: HEK293T
Experimental: as §1

Row | Target | log2 mean competition ratio ([1]; 50 µM) | log2 mean competition ratio ([1]; 200 µM) | log2 mean competition ratio ([2]; 50 µM) | log2 mean competition ratio ([2]; 200 µM)
1 | ZNF280C C94 (UniProt Q8ND82) | 0.0933 | 0.152 | -0.266 | -0.113
2 | ZNF607 C460 |  |  |  | 0.284
3 | ZNF391 C343 (UniProt Q9UJN7) |  | 0.664 | 0.837 | 0.727
4 | ZZZ3 C268 (UniProt Q8IYH5) | -0.0491 | -0.0806 | -0.493 | -0.137
5 | ZNF687 C718 (UniProt Q8N1G0) | 0.466 | 0.0566 | 0.394 | 0.104
